This is an account of results in article PMC6059495.

Results are given in words; binding and its absence hold for the method and conditions named. In cells and extracts the contact can be indirect. These calls come from enrichment with a bait or labelling near it, and not all partners need be listed.

This assay has as its target T. gondii ATP synthase OSCP subunit tagged with YFP-HA (TgATPOSCP-YFP-HA) (T. gondii). The experiment in a line: affinity purification with mass spectrometry; α-HA antibodies cross-linked to Protein A/G Plus agarose; supernatant of DDM-solubilized mitochondria of TgATPOSCP-YFP-HA tachyzoites, overnight at 4 °C; washed with PBS with DDM; eluted with 0.2 M glycine pH 2.3; LC-MS/MS.

B1: ASAP TGME49_223040 (protein, UniProt S8FBB2 1-239)
chain: MAETREGGQSGAASILGAEAFPELLSKVPLNPQMDEDKHFNKYKWGNEPIPVNRRTGSRMNSSIYDNRNHEAVRHPWSTDARTFHPNDNPEADRINTQYSNMVSDSFPEGGFSDAPRFSSNWERLLAYHHGLYSPEKFNSTTKTADEIRLAVNDFAAKVHADDPKNACKYLMIEEFKCLQSAQARIDPQGAATKCVKWFNEWRQCAWDQEKMVKGYNYIEDRRARKHKPYIGAPDLQYS
Regarding B1, the binding entry was “binds”.
